US6416737B1, “Increasing bone strength with selected bisphosphonates” (Board of Trustees of the University of Arkansas, priority 1998, dated 2002)

Tested on: MLO-Y4 cells stably transduced with GFP
Assay: Apoptosis by nuclear morphology of MLO-Y4 cells transduced with nuclear GFP
Format: cell-based, murine
Details: absence of dexamethasone; 10^−7 M
From the text: The retroviral vector containing the nuclear green fluorescent protein (GFP) was provided by Dr. Charles O'Brien (University of Arkansas for Medical Sciences, Little Rock, Ark.). The SV40 large T antigen nuclear localization sequence was attached to the carboxyterminus of the cDNA construct encoding GFP and subcloned into the pLXSN retroviral vector (CLONTECH, Palo Alto, Calif.). The plasmid harboring the retroviral construct was transiently transfected into the packaging cell line Phoenix Eco using SuperFect (Qiagen, Santa Clarita, Calif.). Supernatants containing retroviral particles were collected 24-48 h after transfection, and used immediately to infect cell cultures. […]
Cells presenting brown nuclear staining were considered positive. More than 500 cells per condition were analyzed. […] At least 100 cells per condition were counted.
Apoptosis induced in osteocytes was confirmed by fluorescent microscopy using MLO-Y4 cells stable transduced with green fluorescent protein. […] Numbers indicate the percentage of cells undergoing apoptosis, as determined by evaluating the nuclear morphology of>500 cells in fields selected by systematic random. […]
MLO-Y4 cells stably transduced with GFP were treated for 1 h with 10^−7 M concentration of the indicated bisphosphonates, followed by addition of 10^−6 M dexamethasone. […] The cells were evaluated under a fluorescent microscopy. […]

NCCCC(O)(P(=O)(O)O)P(=O)(O)O [alendronate, 4-amino-1-hydroxybutylidene-1,1-bisphosphonate]
proportion of cells exhibiting chromatin condensation and/or nuclear fragmentation versus untreated: no significant differences
